Experimental data from article PMC6451096, “Molecular basis for transfer RNA recognition by the double-stranded RNA-binding domain of human dihydrouridine synthase 2”.
These are yes or no findings as the source states them, for the method shown.

Sequences of proteins named here, by UniProt entry; tags and fusion partners are left off.
UniProt Q9NX74: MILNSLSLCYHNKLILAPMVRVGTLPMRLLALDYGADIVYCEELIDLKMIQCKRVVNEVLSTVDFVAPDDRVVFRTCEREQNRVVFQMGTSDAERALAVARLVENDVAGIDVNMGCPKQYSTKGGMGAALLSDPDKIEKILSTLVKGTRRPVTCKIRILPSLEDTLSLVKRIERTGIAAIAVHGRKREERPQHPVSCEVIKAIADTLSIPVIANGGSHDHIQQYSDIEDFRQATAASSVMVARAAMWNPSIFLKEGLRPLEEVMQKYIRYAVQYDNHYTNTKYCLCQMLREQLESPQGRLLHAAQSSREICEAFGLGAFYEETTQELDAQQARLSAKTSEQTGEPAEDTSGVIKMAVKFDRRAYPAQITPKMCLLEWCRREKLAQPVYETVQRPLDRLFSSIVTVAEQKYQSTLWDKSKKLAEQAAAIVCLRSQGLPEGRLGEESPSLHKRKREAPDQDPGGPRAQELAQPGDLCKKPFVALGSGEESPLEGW

Target: human dihydrouridine synthase 2 (human) (UniProt Q9NX74)
Assay: SEC-MALS; SEC-MALLS on Superdex 200 10/300 GL (Shimadzu Prominence HPLC, MiniDAWN TREOS, Optilab T-rEX); full length hDus2 free in solution; both purified

## human dihydrouridine synthase 2 (from UniProt Q9NX74 1-493) (enzyme)
  binding: no binding
